According to publication PMC5932058:
Results are given in words; binding and its absence hold for the method and conditions named. In cells and extracts the contact can be indirect. Some binding calls cover weakened binding; strength is not graded here. Tags and fused reporters may be left off the sequences shown.

T1: HA-Fzo1 (S. cerevisiae) (UniProt P38297)
T1 sequence: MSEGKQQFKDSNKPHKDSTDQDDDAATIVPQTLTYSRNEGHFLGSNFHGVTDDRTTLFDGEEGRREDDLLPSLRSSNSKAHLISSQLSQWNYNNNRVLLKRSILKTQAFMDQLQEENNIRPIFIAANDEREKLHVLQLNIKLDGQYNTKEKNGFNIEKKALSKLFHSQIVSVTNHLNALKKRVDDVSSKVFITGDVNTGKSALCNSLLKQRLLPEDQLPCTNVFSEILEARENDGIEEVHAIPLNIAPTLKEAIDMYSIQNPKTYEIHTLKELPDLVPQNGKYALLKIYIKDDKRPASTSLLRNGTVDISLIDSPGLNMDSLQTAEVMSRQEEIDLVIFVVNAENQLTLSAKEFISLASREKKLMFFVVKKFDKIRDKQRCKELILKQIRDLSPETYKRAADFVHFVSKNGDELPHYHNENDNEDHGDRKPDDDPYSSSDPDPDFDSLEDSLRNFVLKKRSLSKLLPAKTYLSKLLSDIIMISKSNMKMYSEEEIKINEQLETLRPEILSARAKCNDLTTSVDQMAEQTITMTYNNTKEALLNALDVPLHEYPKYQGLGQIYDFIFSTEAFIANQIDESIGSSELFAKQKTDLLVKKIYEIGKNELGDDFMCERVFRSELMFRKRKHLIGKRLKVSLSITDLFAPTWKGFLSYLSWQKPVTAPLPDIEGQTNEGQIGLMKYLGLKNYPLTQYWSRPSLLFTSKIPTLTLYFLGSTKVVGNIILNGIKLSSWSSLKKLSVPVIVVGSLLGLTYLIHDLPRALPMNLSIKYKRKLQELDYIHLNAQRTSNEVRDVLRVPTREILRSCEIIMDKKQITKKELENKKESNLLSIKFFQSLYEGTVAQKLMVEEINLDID


Molecular target: T1, HA-Fzo1 (S. cerevisiae)
Experiment: co-IP; HA-Fzo1 immunoprecipitated with HA-coupled beads (2 h, 4 °C) from the crude membrane fraction of yeast cells solubilized with 0.2% NG310 in TBS; beads washed 3x with 0.2% NG310 in TBS; eluate blotted with HA- and GFP-specific antibodies; empty vector as control

Row | binding | Binder
1 | binds | GFP-Pex14 (protein, UniProt P53112 1-341) MSDVVSKDRKALFDSAVSFLKDESIKDAPLLKKIEFLKSKGLTEKEIEIAMKEPKKDGIVGDEVSKKIGSTENRASQDMYLYEAMPPTLPHRDWKDYFVMATATAGLLYGAYEVTRRYVIPNILPEAKSKLEGDKKEIDDQFSKIDTVLNAIEAEQAEFRKKESETLKELSDTIAELKQALVQTTRSREKIEDEFRIVKLEVVNMQNTIDKFVSDNDGMQELNNIQKEMESLKSLMNNRMESGNAQDNRLFSISPNGIPGIDTIPSASEILAKMGMQEESDKEKENGSDANKDDNAVPAWKKAREQTIDSNASIPEWQKNTAANEISVPDWQNGQVEDSIP
2 | binds | GFP-Pex19 (protein, UniProt Q07418 1-342) MNENEYDNFDDLDDLLDEDPTKLDEAEPDDVQAKGSVYNDSENKEKNAESKDSDGVQVANESEEDPELKEMMVDLQNEFANLMKNNGNENNVKTEDFNKLISALEEAAKVPHQQMEQGCSSLKSNSTDKGTVNGSNPGFKNIVSNTLDRLKENGNKVDTSLAEETKESQRSGQNNNIDDILSQLLDQMVASGGKESAENQFDLKDGEMDDAITKILDQMTSKEVLYEPMKEMRSEFGVWFQENGENEEHKEKIGTYKRQFNIVDEIVNIYELKDYDELKHKDRVTELLDELEQLGDSPIRSANSPLKHGNEEEELMKMLEIDGNDPNLGNLDKELTDGCKQQ
